These results are taken from patent US20210009657A1 (THEACHON, published 2021).

Amino acid sequences for entries named in this document (tags omitted). Residues count along the entry.
UniProt P16112, residues 20-675: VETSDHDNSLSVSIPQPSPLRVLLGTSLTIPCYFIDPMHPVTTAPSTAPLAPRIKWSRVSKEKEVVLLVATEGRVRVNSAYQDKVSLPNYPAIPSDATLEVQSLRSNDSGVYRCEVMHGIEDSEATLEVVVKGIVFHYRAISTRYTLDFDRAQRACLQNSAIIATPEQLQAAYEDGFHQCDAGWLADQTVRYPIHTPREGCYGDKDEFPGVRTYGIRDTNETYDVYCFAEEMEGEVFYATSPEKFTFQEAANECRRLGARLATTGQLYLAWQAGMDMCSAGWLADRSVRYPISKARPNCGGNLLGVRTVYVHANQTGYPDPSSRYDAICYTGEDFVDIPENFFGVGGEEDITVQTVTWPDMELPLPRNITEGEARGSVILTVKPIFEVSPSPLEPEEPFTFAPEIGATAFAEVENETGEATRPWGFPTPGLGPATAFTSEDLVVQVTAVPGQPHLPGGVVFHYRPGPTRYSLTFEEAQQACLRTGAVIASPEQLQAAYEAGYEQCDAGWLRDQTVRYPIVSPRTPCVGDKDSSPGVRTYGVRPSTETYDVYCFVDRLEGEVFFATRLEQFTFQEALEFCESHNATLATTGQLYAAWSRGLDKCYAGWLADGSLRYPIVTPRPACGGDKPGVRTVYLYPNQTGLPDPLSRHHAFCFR

These are yes or no findings as the source states them, for the method shown. Some results given as binding are weak or reduced against the parent protein; the word gives no strength. Where a sequence is shown, tags or fusion partners need not be part of it.

The test deals with Aggrecan (R&D systems #1220-PG-025) (UniProt P16112). Kind of test: ELISA, aggrecan coated on plate, detection with anti-FGFR3 antibody. A general note: In an ELISA, binding on a coated surface is turned into a signal by an enzyme label.

B1: FLAG-sFGFR3_Del4-LK1-LK2 (other)
chain: DYKDDDDKLVDQIPAMGAPACALALCVAVAIVAGASSESLGTEQRVVGRAAEVPGPEPGQQEQLVFGSGDAVELSCPPPGGGPMGPTVWVKDGTGLVPSERVLVGPQRLQVLNASHEDSGAYSCRQRLTQRVLCHFSVRVTDAPSSGDDEDGEDEAEDTGVDTGAPYWTRPERMDKKLLAVPAANTVRFRCPAAGNPTPSISWLKNGREFRGEHRIGGIKLRHQQWSLVMESVVPSDRGNYTCVVENKFGSIRQTYTLDVLERSPHRPILQAGLPANQTAVLGSDVEFHCKVYSDAQPHIQWLKHVEVNGSKVGPDGTPYVTVLKVSLESNASMSSNTSGSGSGSGSGSGSGSVVFPYFPRLGRYNLNFHEAQQACLDQDAVIASFDQLYDAWRGGLDWCNAGWLSDGSVQYPITKPREPCGGQNTVPGVRNYGFWDKDKSRYDVFCFTSNFNGRFYYLIHPTKLTYDEAVQACLNDGAQIAKVGQIFAAWKILGYDRCDAGWLADGSVRYPISRPRRRCSPTEAAVRFVGFPDKKHKLYGVYCFRAYN
notes: Fusion of a soluble FGFR3 fragment with the LK1 and LK2 link domains of human HPLN1; Made in HEK 293 cells; also called FP; fusion protein
With B1, the binding result is on record as “binds”.
